From PMC5133636
These are yes or no findings as the source states them, for the method shown. Binding seen in cells or lysates may run through a third protein. Some binding calls cover weakened binding; strength is not graded here.

Amino acid sequences for entries named in this document (tags omitted). Residues count along the entry.
UniProt Q91YI4: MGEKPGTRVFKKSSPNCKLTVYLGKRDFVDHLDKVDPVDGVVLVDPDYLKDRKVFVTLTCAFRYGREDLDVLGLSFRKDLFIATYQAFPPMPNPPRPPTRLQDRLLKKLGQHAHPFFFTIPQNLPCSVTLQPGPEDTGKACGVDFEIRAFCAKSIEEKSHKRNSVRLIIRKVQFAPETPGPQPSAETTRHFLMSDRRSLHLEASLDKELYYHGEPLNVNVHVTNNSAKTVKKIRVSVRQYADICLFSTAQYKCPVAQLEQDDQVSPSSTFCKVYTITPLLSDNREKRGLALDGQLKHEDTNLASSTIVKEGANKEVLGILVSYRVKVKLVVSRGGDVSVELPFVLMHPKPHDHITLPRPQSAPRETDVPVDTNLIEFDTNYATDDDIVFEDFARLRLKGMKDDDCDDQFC
UniProt P97772, residues 21-1199: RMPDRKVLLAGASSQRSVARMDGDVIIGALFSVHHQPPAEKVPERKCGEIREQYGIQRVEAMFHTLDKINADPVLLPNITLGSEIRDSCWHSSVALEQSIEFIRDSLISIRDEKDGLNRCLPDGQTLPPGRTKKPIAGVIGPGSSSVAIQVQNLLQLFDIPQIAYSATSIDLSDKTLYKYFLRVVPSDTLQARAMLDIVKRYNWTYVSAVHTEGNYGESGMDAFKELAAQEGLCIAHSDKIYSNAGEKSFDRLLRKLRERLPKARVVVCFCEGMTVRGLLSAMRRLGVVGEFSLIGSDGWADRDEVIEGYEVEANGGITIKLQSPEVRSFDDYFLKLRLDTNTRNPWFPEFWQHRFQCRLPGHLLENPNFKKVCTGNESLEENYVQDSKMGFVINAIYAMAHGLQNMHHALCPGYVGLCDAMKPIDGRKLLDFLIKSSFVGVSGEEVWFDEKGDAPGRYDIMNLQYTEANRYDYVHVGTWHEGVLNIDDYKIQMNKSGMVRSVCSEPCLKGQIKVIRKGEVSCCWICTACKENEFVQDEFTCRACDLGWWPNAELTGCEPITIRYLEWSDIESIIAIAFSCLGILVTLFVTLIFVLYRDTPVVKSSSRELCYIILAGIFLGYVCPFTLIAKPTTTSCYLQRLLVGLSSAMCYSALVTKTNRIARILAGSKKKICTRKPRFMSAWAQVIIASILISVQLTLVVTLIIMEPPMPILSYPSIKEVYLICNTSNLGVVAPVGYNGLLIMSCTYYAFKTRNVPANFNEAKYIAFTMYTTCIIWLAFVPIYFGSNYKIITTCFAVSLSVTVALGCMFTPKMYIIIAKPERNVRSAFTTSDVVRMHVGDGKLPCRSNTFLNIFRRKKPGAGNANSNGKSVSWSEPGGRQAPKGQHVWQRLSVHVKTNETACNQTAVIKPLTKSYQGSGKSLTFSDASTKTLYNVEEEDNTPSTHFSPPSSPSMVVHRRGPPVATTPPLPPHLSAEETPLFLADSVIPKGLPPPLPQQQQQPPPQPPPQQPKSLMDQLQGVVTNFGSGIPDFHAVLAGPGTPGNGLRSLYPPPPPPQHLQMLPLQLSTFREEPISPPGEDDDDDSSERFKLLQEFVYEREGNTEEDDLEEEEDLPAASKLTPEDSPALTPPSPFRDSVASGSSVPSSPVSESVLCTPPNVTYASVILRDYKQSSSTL

Molecular target: β-arrestin2 (mouse (endogenous in brain tissue)) (UniProt Q91YI4)
Experiment: co-IP; endogenous proteins; wild-type mouse cortex, hippocampus and cerebellum homogenised in 25 mM Tris, 150 mM NaCl, 1 mM EDTA, 1% Triton X-100; 1 mg lysate protein, anti-βarr2 antibody on protein A/G beads overnight at 4 °C; blot for mGluR1 or mGluR5

- binding: binds
Substance: metabotropic glutamate receptor 1 (mGlu1 receptor) (from UniProt P97772 21-1199)
